About 4,500 (1.3%) of roughly 340,000 compounds were called active. The inconclusive results got no clear call from the source; some entries with a clear call stand among them for comparison. Calls follow the shape of the dose curve; as a rule, active = well fitted inhibition curve with a large enough effect; inconclusive = small, poorly fitted or top-dose-only effect, or another doubt; inactive = no such curve, though single readings can be large or run the other way. Potencies of inconclusive entries are doubtful fits and often do not repeat.
molecular target: DNA polymerase beta (Homo sapiens) (UniProt P06746); assay: qHTS Assay for Inhibitors of DNA Polymerase Beta; conditions: Pol beta primer extension/strand displacement, fluorescence kinetic; activity change, negative = inhibition: at 114 µM (top of the series)
How it was run: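 Values derive from four-parameter Hill fits of normalized kinetic data: reads at 0 and 10 min following addition of 50 nM substrate to 10 nM Pol beta preincubated 15 min with compound.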
% is scaled to controls: 0 for no effect and ±100 for the full control effect; potency is read from the fitted curve at half-maximal effect.

Question: Which “activity change, negative = inhibition” value does the source give for `O=C(NC1CC1)C1=C[C@@H](c2c[nH]c3ccccc23)C[C@@H](OCc2ccc(CO)cc2)O1` here?
Answer: Its value is inactive: 3.1%.

Question: For `CCN(CC)c1ccc(NC(=O)CCS(=O)(=O)c2ccc(Br)cc2)c(C)c1`, which Potency is on record?
Answer: The Potency was active: 7.08 µM.

Question: `Cc1cc(C)c(C(=O)Cn2cnc3cc([N+](=O)[O-])ccc3c2=O)cc1C` was tested. Which Potency did it give?
Answer: Its Potency is inconclusive: 89.1 µM [inhibitor, partial curve].

Question: How did the Potency turn out when `O=C(Nc1ccc(C(=O)O)cc1)/C(=C\c1ccco1)NC(=O)c1ccccc1` was run?
Answer: Its Potency is inconclusive: 50.1 µM [inhibitor, single point].

Question: For `CCc1cc2c(-c3ccccc3)cc(=O)oc2cc1OC(C)C(=O)O` (configuration not stated), which Potency is on record?
Answer: The Potency was inconclusive: 0.251 µM [inhibitor, single point].

Question: For `O=C(N/N=C/c1ccccn1)c1cc(-c2ccccc2)nc2ccccc12`, which Potency is on record?
Answer: Its Potency is inconclusive: 3.55 µM [inhibitor, partial curve].

Question: With `Cc1ccc(NC(=O)c2sc3nc(C)nc(N4CCN(c5ccccn5)CC4)c3c2C)c(C)c1` as the compound, how does the Potency read?
Answer: The Potency was inconclusive: 100 µM [inhibitor, single point].

Question: How did the Potency turn out when `COc1cccc(NC(=O)c2cn(C3CCCCC3)c(=O)c3c2c2ccccc2n3C)c1` was run?
Answer: The Potency was inconclusive: 100 µM [inhibitor, single point].

Question: How did the Potency turn out when `CC(NC(=O)Nc1ccc(Br)cc1)C(C)(C)C` (configuration not stated) was run?
Answer: The Potency was inconclusive: 3.16 µM [inhibitor, full curve].

Question: With `C=CCOCCN1C(=O)C2C3C=CC(C2C1=O)C1C2C(=O)N(CCOCC=C)C(=O)C2C31` (configuration not stated) as the compound, how does the Potency read?
Answer: Its Potency is inconclusive: 31.6 µM [inhibitor, full curve].

Question: `Cc1ccc2c(=O)cc(C(=O)Nc3nnc(C)s3)oc2c1` was tested. Which Potency did it give?
Answer: Its Potency is inconclusive: 39.8 µM [inhibitor, single point].

Question: Which “activity change, negative = inhibition” value does the source give for `CCn1nc(-c2ccccc2)c(-c2ccccc2)c(C(=O)OCCOC)c1=O` here?
Answer: Its value is inactive: 5.05%.

Question: With `CN(c1ccccc1)S(=O)(=O)c1ccc(NC(=O)COc2ccccc2)cc1` as the compound, how does the Potency read?
Answer: The Potency was inconclusive: 25.1 µM [inhibitor, single point].

Question: `CCCCC1=CC2=C(c3ccco3)C(=O)C(C)(OC(=O)c3ccc(OC)cc3)C(=O)C2=CN1CCOC` (configuration not stated) was tested. Which “activity change, negative = inhibition” value did it give?
Answer: The value was inactive: -27.2%.

Question: `CC(C)OCCCN1C(=O)c2[nH]nc(-c3ccccc3O)c2C1c1ccc(OCc2ccccc2)cc1` (configuration not stated) was tested. Which Potency did it give?
Answer: Its Potency is inconclusive: 1 µM [inhibitor, full curve, poor fit].

Question: With `O=C(NCc1ccccc1Cl)C1CCCN1C(=O)NCc1ccccc1` (configuration not stated) as the compound, how does the Potency read?
Answer: The Potency was inconclusive: 0.891 µM [inhibitor, full curve, poor fit].

Question: `O=C(N/N=C/c1cccn1-c1cccc(C(=O)O)c1)Nc1ccccc1` was tested. Which Potency did it give?
Answer: The Potency was active: 28.2 µM.

Question: Which Potency does the source give for `CCOc1ccc(/C=C(\C(=O)O)c2ccc(S(=O)(=O)N3CCOCC3)s2)cc1OC` here?
Answer: The Potency was inconclusive: 39.8 µM [inhibitor, partial curve].

Question: With `COC(CNS(=O)(=O)c1cc2c3c(c1)CCN3C(=O)CC2)OC` as the compound, how does the activity change, negative = inhibition read?
Answer: Its activity change, negative = inhibition is inconclusive: -30.7% [inhibitor].

Question: With `CN1CCc2cccc3c2C1Cc1ccc(O)c(O)c1-3` (configuration not stated) as the compound, how does the Potency read?
Answer: Its Potency is “inactive”.

Question: For `CC12CCC(=O)N1C(C(=O)OCC(=O)Nc1sccc1C#N)CS2` (configuration not stated), which Potency is on record?
Answer: The Potency was inconclusive: 5.62 µM [inhibitor, full curve, poor fit].

Question: `CC(=O)c1c(C)oc2c(Br)cc(NS(=O)(=O)c3ccc(Br)cc3)cc12` was tested. Which Potency did it give?
Answer: The Potency was inconclusive: 35.5 µM [inhibitor, partial curve].

Question: For `Cc1ccc(C(=O)Nc2ccc(S(=O)(=O)O)c3cc(S(=O)(=O)O)cc(S(=O)(=O)O)c23)cc1NC(=O)c1cccc(NC(=O)Nc2cccc(C(=O)Nc3cc(C(=O)Nc4ccc(S(=O)(=O)O)c5cc(S(=O)(=O)O)cc(S(=O)(=O)O)c45)ccc3C)c2)c1`, which Potency is on record?
Answer: The Potency was active: 0.891 µM.

Question: How did the “activity change, negative = inhibition” value turn out when `NC(=S)n1[nH]c(-c2ccc([N+](=O)[O-])cc2)c(N=Nc2cccc([N+](=O)[O-])c2)c1=O` was run?
Answer: The value was inactive: -0.269%.

Question: How did the “activity change, negative = inhibition” value turn out when `S=c1nc(-c2ccc(Cl)cc2)[nH][nH]1` was run?
Answer: The value was inactive: 1.99%.

Question: How did the Potency turn out when `CC(C)CC1NC(=O)N(Cc2cc(=O)n3ccsc3n2)C1=O` (configuration not stated) was run?
Answer: The Potency was inconclusive: 20 µM [inhibitor, single point].

Question: Which Potency does the source give for `COc1ccc(C(=O)NC(Cn2ccnc2)C(C)(C)C)cc1OC1CCN(C(C)C)CC1` (configuration not stated) here?
Answer: The Potency was inconclusive: 89.1 µM [inhibitor, single point].

Question: Which Potency does the source give for `C=CCn1c(SCn2nnc3ccccc3c2=O)nnc1C1CCCCC1` here?
Answer: Its Potency is inconclusive: 22.4 µM [inhibitor, partial curve, poor fit].

Question: How did the Potency turn out when `CCOc1ccc(N(C)c2ccc(/C=C3/SC(=S)NC3=O)cc2)cc1` was run?
Answer: The Potency was inconclusive: 63.1 µM [inhibitor, partial curve, poor fit].

Question: With `O=C(Nc1ccc(Cl)cc1)Nc1nc(-c2ccccc2O)cs1` as the compound, how does the activity change, negative = inhibition read?
Answer: Its activity change, negative = inhibition is inconclusive: -41.3% [inhibitor].

Question: How did the Potency turn out when `Cc1cccc2c1-c1sc(C(=O)Nc3cccc([N+](=O)[O-])c3C)cc1CO2` was run?
Answer: The Potency was active: 0.199 µM.

Question: `CCCc1nc(SCC(=O)NCC2CCCO2)c2c(=O)n(C)c(=O)n(C)c2n1` (configuration not stated) was tested. Which activity change, negative = inhibition did it give?
Answer: Its activity change, negative = inhibition is inconclusive: -31.8% [inhibitor].

Question: How did the “activity change, negative = inhibition” value turn out when `O=[N+]([O-])c1ccccc1/C=N/n1c(-c2cccnc2)n[nH]c1=S` was run?
Answer: Its value is inactive: 2.68%.

Question: With `COc1ccccc1N1CCN(C(=O)c2ccc(C(C)(C)C)cc2)CC1` as the compound, how does the Potency read?
Answer: The Potency was inconclusive: 89.1 µM [inhibitor, single point].

Question: How did the Potency turn out when `CC1CC(=O)N(CC(=O)N2CCCC2)c2ccccc2S1` (configuration not stated) was run?
Answer: The Potency was inconclusive: 89.1 µM [inhibitor, single point].

Question: `CCC(=O)Nc1nc(C)c(-c2csc(Nc3cccc(C(=O)O)c3)n2)s1` was tested. Which “activity change, negative = inhibition” value did it give?
Answer: The value was inactive: 1.2%.

Question: `Clc1ccc(CN2CCCCCCC2)cc1Cl` was tested. Which Potency did it give?
Answer: Its Potency is inconclusive: 89.1 µM [inhibitor, single point].

Question: `O=C(NCc1cccn1Cc1ccccc1)Nc1ccc(Br)cc1F` was tested. Which Potency did it give?
Answer: The Potency was inconclusive: 89.1 µM [inhibitor, single point].

Question: For `C=CCn1c(SCC(=O)c2ccc(O)c(O)c2)nnc1-c1ccccc1OC`, which Potency is on record?
Answer: The Potency was inconclusive: 20 µM [inhibitor, partial curve].

Question: `O=C(c1cccc(-n2cccc2)c1)N1CCN(S(=O)(=O)c2ccc(F)cc2)CC1` was tested. Which Potency did it give?
Answer: The Potency was inconclusive: 89.1 µM [inhibitor, single point].

Question: How did the “activity change, negative = inhibition” value turn out when `CCOc1ccccc1C(=O)Nc1ccc(S(=O)(=O)Nc2onc(C)c2C)cc1` was run?
Answer: The value was inactive: -9.06%.

Question: How did the Potency turn out when `CCc1cc(C(N)=S)ccn1` was run?
Answer: The Potency was inconclusive: 63.1 µM [inhibitor, partial curve, poor fit].

— PubChem BioAssay AID485314 (National Center for Advancing Translational Sciences (NCATS), 2010)
